Data reported in PubChem BioAssay AID624263 (National Center for Advancing Translational Sciences (NCATS), 2012).
In all, about 410,000 compounds went through this assay and about 820 (0.2%) were called active. These results got no clear call from the source, so the numbers are uncertain. Calls follow the shape of the dose curve; as a rule, active = well fitted activation curve with a large enough effect; inconclusive = small, poorly fitted or top-dose-only effect; inactive = flat fitted curve, though single readings scatter; cell line not stated here.

Assay: A Quantitative High throughput Screen to Identify Chemical Modulators of PINK1 Expression; also: nearly all actives have a fitted effect of over 65% in size
Conditions: PINK1 immunofluorescence, high-content cytometry, 24 h
Potency is read from the fitted curve at half-maximal effect.

Structure (SMILES)	Potency
O=[N+]([O-])c1cc([N+](=O)[O-])c(Nc2ccc(Cl)cc2)c([N+](=O)[O-])c1	inconclusive: 12.6 µM
Cc1ccc(Nc2c([N+](=O)[O-])cc([N+](=O)[O-])cc2[N+](=O)[O-])cc1	inconclusive: 39.8 µM
